Drawing on publication PMC4546280, this text covers binding for one substance.

The chains behind the UniProt entries cited, without tags or fusion partners.
UniProt Q13546: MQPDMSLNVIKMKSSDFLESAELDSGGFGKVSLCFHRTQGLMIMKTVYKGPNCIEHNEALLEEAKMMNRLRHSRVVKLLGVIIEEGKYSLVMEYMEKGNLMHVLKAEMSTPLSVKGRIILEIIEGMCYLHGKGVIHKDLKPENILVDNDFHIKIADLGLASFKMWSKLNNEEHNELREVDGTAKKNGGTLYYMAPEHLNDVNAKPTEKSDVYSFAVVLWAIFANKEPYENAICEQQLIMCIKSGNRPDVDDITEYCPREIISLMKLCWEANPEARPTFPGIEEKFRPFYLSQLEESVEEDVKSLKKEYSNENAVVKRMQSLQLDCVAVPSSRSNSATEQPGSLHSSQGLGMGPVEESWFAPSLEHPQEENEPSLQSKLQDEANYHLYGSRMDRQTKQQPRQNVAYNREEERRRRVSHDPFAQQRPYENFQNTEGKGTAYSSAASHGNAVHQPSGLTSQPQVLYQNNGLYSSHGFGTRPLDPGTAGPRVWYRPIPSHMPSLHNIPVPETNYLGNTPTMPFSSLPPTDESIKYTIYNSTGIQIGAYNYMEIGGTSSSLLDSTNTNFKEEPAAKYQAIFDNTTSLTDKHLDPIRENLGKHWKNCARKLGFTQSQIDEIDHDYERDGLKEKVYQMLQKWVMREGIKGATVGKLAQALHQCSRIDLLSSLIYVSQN

No constants are given. Whether binding was seen depends on the method and setting. Some binding calls cover weakened binding; strength is not graded here.

The target of this experiment is RIPK1 fused to the GAL4 DNA-binding domain (human) (UniProt Q13546). The experiment can be described thus: two-hybrid.

On to “RIPK3 fused to the GAL4 transcription activation domain (from UniProt Q9Y572-1 1-518)”, for which the binding result is “binds”.
